No constants are given. Whether binding was seen depends on the method and setting. In cells and extracts the contact can be indirect. Some binding calls cover weakened binding; strength is not graded here. For part of these data: Tags and fused reporters may be left off the sequences shown.
Assays:
[1] = molecular target: Streptag-FLAG-tagged SEC23B(S186D) (human) (UniProt Q15437); experiment: co-IP; affinity purification of Streptag-tagged bait on Streptactin beads from transfected HEK293T extracts (50 mM Tris pH 7.4, 150 mM NaCl, 2 mM EDTA, 10% glycerol, 0.5% NP-40; 2 h at 4 C), immunoblotting; in some panels MLN4924 for 4 h, EBSS starvation or co-expressed ULK1
[2] = molecular target: Streptag-FLAG-tagged SEC23B(S186N) (human) (UniProt Q15437); experiment: co-IP; immunoprecipitation with FLAG (FLAG-M2) beads from transfected HEK293T extracts, immunoblotting; Figure 1F untreated or MLN4924 for 4 h
[3] = molecular target: Streptag-FLAG-tagged SEC23B (human) (UniProt Q15437); experiment: as above
[4] = molecular target: Streptag-FLAG-tagged SEC23B(S186A) (human) (UniProt Q15437); experiment: co-IP; affinity purification of Streptag-tagged bait on Streptactin beads from transfected HEK293T extracts (50 mM Tris pH 7.4, 150 mM NaCl, 2 mM EDTA, 10% glycerol, 0.5% NP-40; 2 h at 4 C), immunoblotting; in some panels MLN4924 for 4 h, EBSS starvation or co-expressed ULK1
[5] = molecular target: Streptag-FLAG-tagged SEC23B (human) (UniProt Q15437); experiment: as above
[6] = molecular target: endogenous SEC23B (human (endogenous in HEK293T)) (UniProt Q15437); experiment: co-IP; competition: HEK293T co-transfected with SF-FBXW5 and increasing amounts of HA-tagged SEC24B; affinity purification with Streptactin beads, immunoblotting

Measured: binding

B1: endogenous SEC31 (protein, UniProt O94979 1-1220)
chain: MKLKEVDRTAMQAWSPAQNHPIYLATGTSAQQLDATFSTNASLEIFELDLSDPSLDMKSCATFSSSHRYHKLIWGPYKMDSKGDVSGVLIAGGENGNIILYDPSKIIAGDKEVVIAQNDKHTGPVRALDVNIFQTNLVASGANESEIYIWDLNNFATPMTPGAKTQPPEDISCIAWNRQVQHILASASPSGRATVWDLRKNEPIIKVSDHSNRMHCSGLAWHPDVATQMVLASEDDRLPVIQMWDLRFASSPLRVLENHARGILAIAWSMADPELLLSCGKDAKILCSNPNTGEVLYELPTNTQWCFDIQWCPRNPAVLSAASFDGRISVYSIMGGSTDGLRQKQVDKLSSSFGNLDPFGTGQPLPPLQIPQQTAQHSIVLPLKKPPKWIRRPVGASFSFGGKLVTFENVRMPSHQGAEQQQQQHHVFISQVVTEKEFLSRSDQLQQAVQSQGFINYCQKKIDASQTEFEKNVWSFLKVNFEDDSRGKYLELLGYRKEDLGKKIALALNKVDGANVALKDSDQVAQSDGEESPAAEEQLLGEHIKEEKEESEFLPSSGGTFNISVSGDIDGLITQALLTGNFESAVDLCLHDNRMADAIILAIAGGQELLARTQKKYFAKSQSKITRLITAVVMKNWKEIVESCDLKNWREALAAVLTYAKPDEFSALCDLLGTRLENEGDSLLQTQACLCYICAGNVEKLVACWTKAQDGSHPLSLQDLIEKVVILRKAVQLTQAMDTSTVGVLLAAKMSQYANLLAAQGSIAAALAFLPDNTNQPNIMQLRDRLCRAQGEPVAGHESPKIPYEKQQLPKGRPGPVAGHHQMPRVQTQQYYPHGENPPPPGFIMHGNVNPNAAGQLPTSPGHMHTQVPPYPQPQPYQPAQPYPFGTGGSAMYRPQQPVAPPTSNAYPNTPYISSASSYTGQSQLYAAQHQASSPTSSPATSFPPPPSSGASFQHGGPGAPPSSSAYALPPGTTGTLPAASELPASQRTGPQNGWNDPPALNRVPKKKKMPENFMPPVPITSPIMNPLGDPQSQMLQQQPSAPVPLSSQSSFPQPHLPGGQPFHGVQQPLGQTGMPPSFSKPNIEGAPGAPIGNTFQHVQSLPTKKITKKPIPDEHLILKTTFEDLIQRCLSSATDPQTKRKLDDASKRLEFLYDKLREQTLSPTITSGLHNIARSIETRNYSEGLTMHTHIVSTSNFSETSAFMPVLKVVLTQANKLGV
binds: [1]

B2: endogenous SEC24A (protein, UniProt O95486 1-1093)
chain: MSQPGIPASGGAPASLQAQNGAALASGSPYTNGPVQNALLSSQESVSQGYNFQLPGSYPHPIPAKTLNPVSGQSNYGGSQGSGQTLNRPPVASNPVTPSLHSGPAPRMPLPASQNPATTPMPSSSFLPEANLPPPLNWQYNYPSTASQTNHCPRASSQPTVSGNTSLTTNHQYVSSGYPSLQNSFIKSGPSVPPLVNPPLPTTFQPGAPHGPPPAGGPPPVRALTPLTSSYRDVPQPLFNSAVNQEGITSNTNNGSMVVHSSYDEIEGGGLLATPQLTNKNPKMSRSVGYSYPSLPPGYQNTTPPGATGVPPSSLNYPSGPQAFTQTPLGANHLTTSMSGLSLQPEGLRVVNLLQERNMLPSTPLKPPVPNLHEDIQKLNCNPELFRCTLTSIPQTQALLNKAKLPLGLLLHPFKDLVQLPVVTSSTIVRCRSCRTYINPFVSFLDQRRWKCNLCYRVNDVPEEFLYNPLTRVYGEPHRRPEVQNATIEFMAPSEYMLRPPQPPVYLFVFDVSHNAVETGYLNSVCQSLLDNLDLLPGNTRTKIGFITFDSTIHFYGLQESLSQPQMLIVSDIEDVFIPMPENLLVNLNESKELVQDLLKTLPQMFTKTLETQSALGPALQAAFKLMSPTGGRMSVFQTQLPTLGVGALKPREEPNHRSSAKDIHMTPSTDFYKKLALDCSGQQVAVDLFLLSGQYSDLASLGCISRYSAGSVYYYPSYHHQHNPVQVQKLQKELQRYLTRKIGFEAVMRIRCTKGLSIHTFHGNFFVRSTDLLSLPNVNPDAGYAVQMSVEESLTDTQLVSFQSALLYTSSKGERRIRVHTLCLPVVSTLNDVFLGADVQAISGLLANMAVDRSMTASLSDARDALVNAVIDSLSAYRSSVLSNQQPGLMVPFSLRLFPLFVLALLKQKSFQTGTNARLDERIFAMCQVKNQPLVYLMLTTHPSLYRVDNLSDEGALNISDRTIPQPPILQLSVEKLSRDGAFLMDAGSVLMLWVGKNCTQNFLSQVLGVQNYASIPQPMTDLPELDTPESARIIAFISWLREQRPFFPILYVIRDESPMKANFLQNMIEDRTESALSYYEFLLHIQQQVNK
not listed: [6]
binds: all other assays above

B3: endogenous SEC24B (protein, UniProt O95487 1-1268)
chain: MSAPAGSSHPAASARIPPKFGGAAVSGAAAPAGPGAGPAPHQQNGPAQNQMQVPSGYGLHHQNYIAPSGHYSQGPGKMTSLPLDTQCGDYYSALYTVPTQNVTPNTVNQQPGAQQLYSRGPPAPHIVGSTLGSFQGAASSASHLHTSASQPYSSFVNHYNSPAMYSASSSVASQGFPSTCGHYAMSTVSNAAYPSVSYPSLPAGDTYGQMFTSQNAPTVRPVKDNSFSGQNTAISHPSPLPPLPSQQHHQQQSLSGYSTLTWSSPGLPSTQDNLIRNHTGSLAVANNNPTITVADSLSCPVMQNVQPPKSSPVVSTVLSGSSGSSSTRTPPTANHPVEPVTSVTQPSELLQQKGVQYGEYVNNQASSAPTPLSSTSDDEEEEEEDEEAGVDSSSTTSSASPMPNSYDALEGGSYPDMLSSSASSPAPDPAPEPDPASAPAPASAPAPVVPQPSKMAKPFGYGYPTLQPGYQNATAPLISGVQPSNPVYSGFQQYPQQYPGVNQLSSSIGGLSLQSSPQPESLRPVNLTQERNILPMTPVWAPVPNLNADLKKLNCSPDSFRCTLTNIPQTQALLNKAKLPLGLLLHPFRDLTQLPVITSNTIVRCRSCRTYINPFVSFIDQRRWKCNLCYRVNDVPEEFMYNPLTRSYGEPHKRPEVQNSTVEFIASSDYMLRPPQPAVYLFVLDVSHNAVEAGYLTILCQSLLENLDKLPGDSRTRIGFMTFDSTIHFYNLQEGLSQPQMLIVSDIDDVFLPTPDSLLVNLYESKELIKDLLNALPNMFTNTRETHSALGPALQAAFKLMSPTGGRVSVFQTQLPSLGAGLLQSREDPNQRSSTKVVQHLGPATDFYKKLALDCSGQQTAVDLFLLSSQYSDLASLACMSKYSAGCIYYYPSFHYTHNPSQAEKLQKDLKRYLTRKIGFEAVMRIRCTKGLSMHTFHGNFFVRSTDLLSLANINPDAGFAVQLSIEESLTDTSLVCFQTALLYTSSKGERRIRVHTLCLPVVSSLADVYAGVDVQAAICLLANMAVDRSVSSSLSDARDALVNAVVDSLSAYGSTVSNLQHSALMAPSSLKLFPLYVLALLKQKAFRTGTSTRLDDRVYAMCQIKSQPLVHLMKMIHPNLYRIDRLTDEGAVHVNDRIVPQPPLQKLSAEKLTREGAFLMDCGSVFYIWVGKGCDNNFIEDVLGYTNFASIPQKMTHLPELDTLSSERARSFITWLRDSRPLSPILHIVKDESPAKAEFFQHLIEDRTEAAFSYYEFLLHVQQQICK
not listed: [6]
binds: all other assays above

B4: HA-tagged SEC24B (protein, UniProt O95487 1-1268)
chain: B3 chain
binds: [6]

Source: PMC6351106
